The source of these data is US20190100594A1.

This assay deals with cyno GITR-CHO (cynomolgus monkey). Nature of the assay: flow cytometry on cyno GITR-CHO cells. In general terms: Flow cytometry measures light scatter and fluorescence of single cells or particles in a stream.

No constants are given. Whether binding was seen depends on the method and setting. A result given as binding can be weak or reduced; the word gives no strength.

B1: hzC06v2.4 (VHH)
VHH: EVQLLESGGGEVQPGGSLRLSCAASGSVFSIDAMGWYRQAPGQQRELVAVLSGISSATYAESVKGRFTISRDNAKNTLYLQMSSLRAEDTAVYYCYADVSTGWGRDAHGYWGQGTLVTV
Regarding B1, the binding entry was “binds”.

B2: hzC06v3 (VHH)
VHH: EVQLLESGGGEVQPGGSLRLSCAASGSVFSIDAMGWYRQAPGKQRELVAVLSGISSAKYAESVKGRFTISRDNAKNTLYLQMSSLRAEDTAVYYCYADVSTGWGRDAHGYWGQGTLVTV
For B2, the binding result is recorded as “binds”.
